Source: PMC5525311
These are yes or no findings as the source states them, for the method shown. In cells and extracts the contact can be indirect. A result given as binding can be weak or reduced; the word gives no strength. Tags and fused reporters may be left off the sequences shown.

By UniProt entry, the sequences of proteins in these tests, tags left out. Where a name states a change or a piece, a line headed by the entry shows the natural chain unless it says otherwise.
UniProt Q9NRP4: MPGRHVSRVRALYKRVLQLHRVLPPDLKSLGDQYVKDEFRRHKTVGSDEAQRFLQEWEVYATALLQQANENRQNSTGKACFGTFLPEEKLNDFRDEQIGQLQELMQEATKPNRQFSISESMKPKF

Columns and labels:
[1] = target: SDHAF3 p.Phe53Leu expressed in yeast (human) (UniProt Q9NRP4); assay: co-IP; yeast mitochondria solubilised in 1% digitonin, 10 mM Tris-HCl pH 7.4, 150 mM NaCl, 1 mM EDTA; anti-SDHAF3 antibody 16 h at 4 °C, protein A magnetic beads; immunoblot; anti-HA antibody as negative control
[2] = target: SDHAF3 p.Phe53Leu (c.157 T > C), Myc-DDK-tagged (human) (UniProt Q9NRP4); assay: co-IP; HEK293 co-transfected for 24 h with DDK-tagged SDHAF3 and GFP-tagged SDHB; anti-DDK on Dynabeads M-280 sheep anti-mouse IgG, overnight at 4 °C; washes in Co-IP buffer with 500 mM NaCl, 0.1% Triton X100; immunoblot for GFP and DDK; mouse IgG as negative control

B1: Sdh2-His6Myc2 (protein, UniProt P21801 21-266)
chain: TATTAAATHTPRLKTFKVYRWNPDEPSAKPHLQSYQVDLNDCGPMVLDALLKIKDEQDSTLTFRRSCREGICGSCAMNIGGRNTLACICKIDQNESKQLKIYPLPHMFIVKDLVPDLTNFYQQYKSIQPYLQRSSFPKDGTEVLQSIEDRKKLDGLYECILCACCSTSCPSYWWNQEQYLGPAVLMQAYRWLIDSRDQATKTRKAMLNNSMSLYRCHTIMNCTRTCPKGLNPGLAIAEIKKSLAFA
binding [1]: binds

B2: SDHB p.Ala43Pro, GFP-tagged (protein, UniProt P21912 29-280)
chain: AQTAAATAPRIKKFPIYRWDPDKAGDKPHMQTYEVDLNKCGPMVLDALIKIKNEVDSTLTFRRSCREGICGSCAMNINGGNTLACTRRIDTNLNKVSKIYPLPHMYVIKDLVPDLSNFYAQYKSIEPYLKKKDESQEGKQQYLQSIEEREKLDGLYECILCACCSTSCPSYWWNGDKYLGPAVLMQAYRWMIDSRDDFTEERLAKLQDPFSLYRCHTIMNCTRTCPKGLNPGKAIAEIKKMMATYKEKKASV
binding [2]: binds

B3: SDHB p.Pro197Arg, GFP-tagged (protein, UniProt P21912 29-280)
chain: AQTAAATAPRIKKFAIYRWDPDKAGDKPHMQTYEVDLNKCGPMVLDALIKIKNEVDSTLTFRRSCREGICGSCAMNINGGNTLACTRRIDTNLNKVSKIYPLPHMYVIKDLVPDLSNFYAQYKSIEPYLKKKDESQEGKQQYLQSIEEREKLDGLYECILCACCSTSCRSYWWNGDKYLGPAVLMQAYRWMIDSRDDFTEERLAKLQDPFSLYRCHTIMNCTRTCPKGLNPGKAIAEIKKMMATYKEKKASV
binding [2]: binds

B4: SDHB p.Ile127Ser, GFP-tagged (protein, UniProt P21912 29-280)
chain: AQTAAATAPRIKKFAIYRWDPDKAGDKPHMQTYEVDLNKCGPMVLDALIKIKNEVDSTLTFRRSCREGICGSCAMNINGGNTLACTRRIDTNLNKVSKSYPLPHMYVIKDLVPDLSNFYAQYKSIEPYLKKKDESQEGKQQYLQSIEEREKLDGLYECILCACCSTSCPSYWWNGDKYLGPAVLMQAYRWMIDSRDDFTEERLAKLQDPFSLYRCHTIMNCTRTCPKGLNPGKAIAEIKKMMATYKEKKASV
binding [2]: binds

B5: SDHB p.Cys101Tyr, GFP-tagged (protein, UniProt P21912 29-280)
chain: AQTAAATAPRIKKFAIYRWDPDKAGDKPHMQTYEVDLNKCGPMVLDALIKIKNEVDSTLTFRRSCREGICGSYAMNINGGNTLACTRRIDTNLNKVSKIYPLPHMYVIKDLVPDLSNFYAQYKSIEPYLKKKDESQEGKQQYLQSIEEREKLDGLYECILCACCSTSCPSYWWNGDKYLGPAVLMQAYRWMIDSRDDFTEERLAKLQDPFSLYRCHTIMNCTRTCPKGLNPGKAIAEIKKMMATYKEKKASV
binding [2]: binds

B6: SDHB (succinate dehydrogenase subunit B), wild type, GFP-tagged (protein, UniProt P21912 29-280)
chain: AQTAAATAPRIKKFAIYRWDPDKAGDKPHMQTYEVDLNKCGPMVLDALIKIKNEVDSTLTFRRSCREGICGSCAMNINGGNTLACTRRIDTNLNKVSKIYPLPHMYVIKDLVPDLSNFYAQYKSIEPYLKKKDESQEGKQQYLQSIEEREKLDGLYECILCACCSTSCPSYWWNGDKYLGPAVLMQAYRWMIDSRDDFTEERLAKLQDPFSLYRCHTIMNCTRTCPKGLNPGKAIAEIKKMMATYKEKKASV
binding [2]: binds

B7: SDHB p.Arg242His, GFP-tagged (protein, UniProt P21912 29-280)
chain: AQTAAATAPRIKKFAIYRWDPDKAGDKPHMQTYEVDLNKCGPMVLDALIKIKNEVDSTLTFRRSCREGICGSCAMNINGGNTLACTRRIDTNLNKVSKIYPLPHMYVIKDLVPDLSNFYAQYKSIEPYLKKKDESQEGKQQYLQSIEEREKLDGLYECILCACCSTSCPSYWWNGDKYLGPAVLMQAYRWMIDSRDDFTEERLAKLQDPFSLYHCHTIMNCTRTCPKGLNPGKAIAEIKKMMATYKEKKASV
binding [2]: no binding

B8: SDHB p.Arg46Gly, GFP-tagged (protein, UniProt P21912 29-280)
chain: AQTAAATAPRIKKFAIYGWDPDKAGDKPHMQTYEVDLNKCGPMVLDALIKIKNEVDSTLTFRRSCREGICGSCAMNINGGNTLACTRRIDTNLNKVSKIYPLPHMYVIKDLVPDLSNFYAQYKSIEPYLKKKDESQEGKQQYLQSIEEREKLDGLYECILCACCSTSCPSYWWNGDKYLGPAVLMQAYRWMIDSRDDFTEERLAKLQDPFSLYRCHTIMNCTRTCPKGLNPGKAIAEIKKMMATYKEKKASV
binding [2]: no binding

B9: SDHB p.Arg46Gln, GFP-tagged (protein, UniProt P21912 29-280)
chain: AQTAAATAPRIKKFAIYQWDPDKAGDKPHMQTYEVDLNKCGPMVLDALIKIKNEVDSTLTFRRSCREGICGSCAMNINGGNTLACTRRIDTNLNKVSKIYPLPHMYVIKDLVPDLSNFYAQYKSIEPYLKKKDESQEGKQQYLQSIEEREKLDGLYECILCACCSTSCPSYWWNGDKYLGPAVLMQAYRWMIDSRDDFTEERLAKLQDPFSLYRCHTIMNCTRTCPKGLNPGKAIAEIKKMMATYKEKKASV
binding [2]: no binding
